For one compound, Propidium competition and Toxicity results are on record in patent publication US7910739B2, “Acetylcholinesterase dual inhibitors” (priority 2003, dated 2011).

Amino acid sequences for entries named in this document (tags omitted). Residues count along the entry.
UniProt P23795, 31-614 isoform 2 limits assumed: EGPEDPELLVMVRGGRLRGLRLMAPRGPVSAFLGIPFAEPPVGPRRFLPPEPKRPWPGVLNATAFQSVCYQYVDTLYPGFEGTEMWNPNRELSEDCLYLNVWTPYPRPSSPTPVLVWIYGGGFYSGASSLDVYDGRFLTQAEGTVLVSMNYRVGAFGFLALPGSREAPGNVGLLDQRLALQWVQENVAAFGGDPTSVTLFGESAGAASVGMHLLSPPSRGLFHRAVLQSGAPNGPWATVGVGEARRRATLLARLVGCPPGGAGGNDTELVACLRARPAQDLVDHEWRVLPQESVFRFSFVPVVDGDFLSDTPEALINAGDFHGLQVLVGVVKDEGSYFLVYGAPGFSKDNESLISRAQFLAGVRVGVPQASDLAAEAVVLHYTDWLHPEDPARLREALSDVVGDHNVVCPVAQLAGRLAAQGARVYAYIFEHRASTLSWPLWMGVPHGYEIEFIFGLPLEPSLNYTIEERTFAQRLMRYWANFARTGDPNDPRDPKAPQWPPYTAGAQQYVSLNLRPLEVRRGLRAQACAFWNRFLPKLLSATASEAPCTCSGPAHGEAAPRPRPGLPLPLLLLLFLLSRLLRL

The target in data set [1] is AChE peripheral site (Bos taurus, UniProt P23795). In words: Propidium competition (fluorescence). Type of data set: binding. The conditions noted are these: 10 μM AchE, 20 μM propidium iodide, pH 8.0.
In data set [2] the test system is human neuroblastoma cell line SH-SY5Y. Put plainly: Toxicity measurement (LDH release). Format: cell-based. To be noted: 24 hours exposure. Here is the method: The cytotoxicity effect of the molecules was tested in the human neuroblastoma cell line SH-SY5Y. These cells were cultured in 96-well plates in DULBECCO'S MOD EAGLE medium, supplemented with 10% fetal bovine serum and 1% penicillin/streptomycin, and grown in a 5% CO2 humidified incubator at 37° C.
The cells were plated at 10^4 cells for each well, at least, 48 hours before the toxicity measure. Cells were exposed for 24 hours to the compounds at different concentrations (from 10^−5 to 10^−9), quantitative assessment of cell death was made by measurement of the intracellular enzyme lactate dehydrogenase (LDH) (citotoxicity detection kit, Roche). The quantity of LDH was evaluated in a microplate reader Anthos 2010, at 492 and 620 nm. Controls were taken as 100% viability.
Background: Release of lactate dehydrogenase indicates damage to the cell membrane.

The match of structure and compound is tentative. Where only a bound is given, the exact number is not on record here.

Take `O=C(/C=C/c1c[nH]c2ccccc12)NCCCCCCNc1c2c(nc3cc(Cl)ccc13)CCCC2`: in data set [1], the Propidium competition is 10 µM. For the same compound, the Toxicity in data set [2] was >10 µM.
